These are yes or no findings as the source states them, for the method shown. Binding seen in cells or lysates may run through a third protein. Some entries that bind do so weakly or less than the wild type. Where a sequence is shown, tags or fusion partners need not be part of it.
Tests used:
[1] = molecular target: T1, FLAG-tagged LMO1 (overexpressed in 293T cells) (human) (UniProt P25800); test: co-IP; FLAG-tagged LMO1 with GATA3 and LDB1, overexpressed in 293T cells
T1 sequence: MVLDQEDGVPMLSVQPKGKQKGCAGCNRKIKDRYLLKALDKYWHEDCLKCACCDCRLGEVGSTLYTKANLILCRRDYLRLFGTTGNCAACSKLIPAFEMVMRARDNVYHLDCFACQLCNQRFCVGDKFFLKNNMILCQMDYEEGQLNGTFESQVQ

Protein sequences, listed by entry. Tags and fused reporters are not part of them.
UniProt P23771: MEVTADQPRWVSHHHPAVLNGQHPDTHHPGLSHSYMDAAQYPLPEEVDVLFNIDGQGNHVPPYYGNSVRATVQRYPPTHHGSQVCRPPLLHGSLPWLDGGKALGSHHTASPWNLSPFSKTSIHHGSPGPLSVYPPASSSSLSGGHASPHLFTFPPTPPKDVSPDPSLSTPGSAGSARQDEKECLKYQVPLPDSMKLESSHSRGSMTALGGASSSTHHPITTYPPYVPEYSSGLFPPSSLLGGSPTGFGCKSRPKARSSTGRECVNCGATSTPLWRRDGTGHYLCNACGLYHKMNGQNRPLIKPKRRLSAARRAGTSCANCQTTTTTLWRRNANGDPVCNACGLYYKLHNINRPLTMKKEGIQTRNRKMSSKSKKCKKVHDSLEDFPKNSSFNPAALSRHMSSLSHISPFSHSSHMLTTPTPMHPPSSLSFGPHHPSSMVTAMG

[2] = molecular target: T2, FLAG-tagged LMO1 (overexpressed in Kelly neuroblastoma cells) (human) (UniProt P25800); test: co-IP; FLAG-tagged LMO1 overexpressed in Kelly neuroblastoma cells; endogenous GATA3 and LDB1
T2 sequence: T1 sequence

GATA3 (in 293T cells) (from UniProt P23771 1-443)
binding [1]: binds

endogenous GATA3 (Kelly neuroblastoma cells) (from UniProt P23771 1-443)
binding [2]: binds
